Values quoted from earlier work as cited in patent US5110911A, “Human tumor-associated Thomsen-Friedenreich antigen” (Biomira, Inc., priority 1989, dated 1992).
Where two headings read alike, the source gives them in different places.

Test system: β-D Gal (1→3 GalNAc structure in cancer tissues)
Conditions: Yuan et al., cited from earlier work

B1: PNA: lectin extracted from the peanut (Arachis hypogaea) which recognizes the terminal disaccharide of the TF-antigen (protein, UniProt P02872 24-273, looked up)
Galactose-binding lectin: AETVSFNFNSFSEGNPAINFQGDVTVLSNGNIQLTNLNKVNSVGRVLYAMPVRIWSSATGNVASFLTSFSFEMKDIKDYDPADGIIFFIAPEDTQIPAGSIGGGTLGVSDTKGAGHFVGVEFDTYSNSEYNDPPTDHVGIDVNSVDSVKTVPWNSVSGAVVKVTVIYDSSTKTLSVAVTNDNGDITTIAQVVDLKAKLPERVKFGFSASGSLGGRQIHLIRSWSFTSTLITTTRRSIDNNEKKIMNMASA
sensitivity in cancer tissues: 91%
specificity (with autopsy controls): 68%
specificity (with nonneoplastic disease mucosa): 86%
